Patent US10022395B2 (UNIWERSYTET LÓDZKI, priority 2012, dated 2018)
At least one structure is not confirmed: it was looked up by name or label, or the drawing left a doubt.

Tested on: CLL cells (leukemic lymphocytes, MNCs)
Assay: Mitochondrial membrane potential (CMXRos / anti-glycophorin A-FITC, flow cytometry)
Assay type: cell-based, human
Conditions: 1.6 μM
From the text: Mitochondrial membrane potential is an early indicator of apoptosis. CMXRos, i.e. Chloromethyl-X-rosamine (the reagent's name by Mito Tracker Red CMXRos, Molecular Probes, USA), and a monoclonal antibody to glycophorin A conjugated with FITC (the reagent's name of Anti-Glycophorin A FITC by Dako, Denmark) were used for its assessment. CMXRos is a lipophilic cationic dye that accumulates in the mitochondrial matrix of viable cells when there is an electronegative load on the inner surface of the mitochondrial membrane. This asymmetric location of protons along the inner mitochondrial membrane leads to a high mitochondrial membrane potential (ΔΨm) in living cells. […]
The stock CMXRos solution was prepared by dilution of the substance supplied by the manufacturer in 94 μl. […] The samples were next measured using flow cytometry. The percentage of cells not bound to anti-glycophorin A-FITC (ΔΨm^low/GIy-A^− cells), with low mitochondrial potential, was calculated.
All fluorescence measurements were performed by a flow cytometer FACSCalibur (Becton Dickinson, USA) equipped with an argon laser 488nm and computer program CeliQuestPro (Becton Dickinson, USA). Each time 10 000cells were evaluated. The fluorescence was measured using standard emission filters: green—FL1 (wavelength λ=530±20 nm) and red—FL3 (λ>600 nm).

Compound: Nc1nc(F)nc2c1ncn2[C@@H]1O[C@H](CO)[C@@H](O)[C@@H]1O [FA, fludarabine]
- apoptotic cells rate (mitochondrial potential): comparable to the percentage of apoptotic cells for the PPI-G4-OS-Mal-III dendrimer concentration of 6 mg/ml
